# Data published in US20210179636A1, “ANTIBACTERIAL COMPOUNDS” (priority 2016, published 2021).
# Entries after “also recorded” stand apart in the source; their conditions may differ. Some entries share one result that the patent states for a list of compounds. At least one compound was matched to its structure with a doubt left.
# Test system: HepG2 ATCC HB-8065
# Test: Human cell viability assay (CellTiter-Glo)
# Type: cell-based
# Conditions: summary of Table 3
# Experimental: Compounds are assessed for potential non-specific cytotoxic effects against a human hepatic cell line (HepG2 ATCC HB-8065). HepG2 cells are seeded at 20,000 cells/well in 96-well microtitre plates in minimal essential medium (MEM) supplemented with a final concentration of 10% FBS and 1 mM sodium pyruvate. After 24 h compound dilutions are prepared in Dulbecco's minimum essential media (DMEM) supplemented with final concentrations of 0.001% FBS, 0.3% bovine albumin and 0.02% HEPES and added to cells. Compounds are tested in two-fold serial dilutions over a final concentration range of 1-128 μg/mL in a final DMSO concentration of 1% vol/vol. Chlorpromazine is used as a positive control. Cells are incubated with compound at 37° C. and 5% CO2 for a further 24 h, after which time the CellTiter-Glo reagent (Promega) is added. Luminescence is measured on a BMG Omega plate reader. Data are analysed using GraphPad Prism software to determine the concentration of compound that inhibits cell viability by fifty percent (IC50).
row,SMILES,toxicity against HepG2 human hepatic cell line (in words)
1,COc1ccc2ccc(=O)n(CCN3C[C@@H]4CN(c5ccc6c(n5)NC(=O)CO6)C(=O)O[C@H]4C3)c2n1 (relative stereo) [Compound 1],no detectable toxicity; also recorded: low toxicities
2,N#Cc1cccc(-c2cccc(CN3C[C@@H]4CN(c5ccc6c(n5)NC(=O)CO6)C(=O)O[C@H]4C3)c2O)n1 (relative stereo) [Compound 3],low toxicities
3,"O=C1COc2ccc(N3C[C@@H]4CN(CCCn5c(=O)ccc6ccccc65)C[C@@H]4OC3=O)nc2N1 (relative stereo) [Compound 4, rel-1-{3-[(4aS*,7aR*)-2-oxo-3-{3-oxo-2H,3H,4H-pyrido[3,2-b][1,4]oxazin-6-yl}-octahydropyrrolo[3,4-e][1,3]oxazin-6-yl]propyl}-1,2-dihydroquinolin-2-one]",low toxicities; also recorded: no detectable toxicity
4,O=C1COc2ccc(N3C[C@H]4CN(CCn5c(=O)ccc6ccc(OCCO)nc65)C[C@@H]4OC3=O)nc2N1 (relative stereo) [Compound 5],low toxicities; also recorded: no detectable toxicity
5,"O=C1COc2ccc(N3C[C@@H]4CN(CCn5c(=O)ccc6ccc(Oc7cccnc7)nc65)C[C@@H]4OC3=O)nc2N1 (relative stereo) [Compound 7, rel-1-{2-[(4aS*,7aR*-2-oxo-3-{3-oxo-2H,3H,4H-pyrido[3,2-b][1,4]oxazin-6-yl}-octahydropyrrolo[3,4-e][1,3]oxazin-6-yl]ethyl}-7-(pyridin-3-yloxy)-1,2-dihydro-1,8-naphthyridin-2-one]",low toxicities; also recorded: no detectable toxicity
6,NCCCOc1ccc2ccc(=O)n(CCN3C[C@@H]4CN(c5ccc6c(n5)NC(=O)CO6)C(=O)O[C@H]4C3)c2n1 (relative stereo) [Compound 8],low toxicities; also recorded: no detectable toxicity
7,"COc1ccc2c3nocc3c(=O)n(CCN3C[C@H]4CN(c5ccc6c(n5)NC(=O)CO6)C(=O)O[C@H]4C3)c2c1 (relative stereo) [Compound 9, rel-(4aS*,7aR*-6-(2-{7-methoxy-4-oxo-4H,5H-[1,2]oxazolo[3,4-c]quinolin-5-yl}ethyl)-3-{3-oxo-2H,3H,4H-pyrido[3,2-b][1,4]oxazin-6-yl}-octahydropyrrolo[3,4-e][1,3]oxazin-2-one]",low toxicities
8,"COc1ncc2ccc(=O)n(CCN3C[C@H]4CN(c5ccc6c(n5)NC(=O)CO6)C(=O)O[C@@H]4C3)c2n1 (relative stereo) [Compound 13, rel-(4aS*,7aR*-6-(2-{2-methoxy-7-oxo-7H,8H-pyrido[2,3-d]pyrimidin-8-yl}ethyl)-3-{3-oxo-2H,3H,4H-pyrido[3,2-b][1,4]oxazin-6-yl}-octahydropyrrolo[3,4-e][1,3]oxazin-2-one]",low toxicities
9,"N#Cc1ccc2ccc(=O)n(CCCN3C[C@H]4CN(c5ccc6c(n5)NC(=O)CO6)C(=O)O[C@@H]4C3)c2c1 (relative stereo) [Compound 14, rel-1-{3-[(4aS*,7aR*)-2-oxo-3-{3-oxo-2H,3H,4H-pyrido[3,2-b]1,4]oxazin-6-yl}-octahydropyrrolo[3,4-e][1,3]oxazin-6-yl]propyl}-2-oxo-1,2-dihydroquinoline-7-carbonitrile]",low toxicities
10,"N#Cc1ccc2ccc(=O)n(CCN3CC4CN(c5ccc6c(n5)NC(=O)CO6)C(=O)O[C@@H]4C3)c2c1 (stereo in doubt) [Compound 12, 1-{2-[(4aR,7aS)-2-oxo-3-{3-oxo-2H,3H,4H-pyrido[3,2-b][1,4]oxazin-6-yl}-octahydropyrrolo[3,4-e][1,3]oxazin-6-yl]ethyl}-2-oxo-1,2-dihydroquinoline-7-carbonitrile]",no detectable toxicity; also recorded: low toxicities
11,"N#Cc1ccc2ccc(=O)n(CCN3CC4CN(c5ccc6c(n5)NC(=O)CO6)C(=O)O[C@H]4C3)c2c1 (stereo in doubt) [Compound 17, 1-{2-[(4aS,7aR)-2-oxo-3-{3-oxo-2H,3H,4H-pyrido[3,2-b][1,4]oxazin-6-yl}-octahydropyrrolo[3,4-e][1,3]oxazin-6-yl]ethyl}-2-oxo-1,2-dihydroquinoline-7-carbonitrile]",low toxicities; also recorded: no detectable toxicity
12,"NCCCOc1ccc2ccc(=O)n(CCCN3CC4CN(c5ccc6c(n5)NC(=O)CO6)C(=O)OC4C3)c2n1 (stereo not drawn) [Compound 6, rel-1-{3-[(4aS*,7aR*)-2-oxo-3-{3-oxo-2H,3H,4H-pyrido[3,2-b][1,4]oxazin-6-yl}-octahydropyrrolo[3,4-e][1,3]oxazin-6-yl]propyl}-7-(3-aminopropoxy)-1,2-dihydro-1,8-naphthyridin-2-one]",low toxicities; also recorded: no detectable toxicity
13,"COc1ncc2ccc(=O)n(CCCN3CC4CN(c5ccc6c(n5)NC(=O)CO6)C(=O)OC4C3)c2n1 (stereo not drawn) [Compound 11, rel-(4aS*,7aR*)-6-(3-{2-methoxy-7-oxo-7H,8H-pyrido[2,3-d]pyrimidin-8-yl}propyl)-3-{3-oxo-2H,3H,4H-pyrido[3,2-b][1,4]oxazin-6-yl}-octahydropyrrolo[3,4-e][1,3]oxazin-2-one]",low toxicities
14,"COc1ccc2ccc(=O)n(CCN3CC4CN(c5ccc6c(n5)NC(=O)CO6)C(=O)OC4C3)c2n1 (stereo not drawn) [Compound 16, rel-1-{2-[(4aR*,7aR*)-2-oxo-3-{3-oxo-2H,3H,4H-pyrido[3,2-b][1,4]oxazin-6-yl}-octahydropyrrolo[3,4-e][1,3]oxazin-6-yl]ethyl}-7-methoxy-1,2-dihydro-1,8-naphthyridin-2-one]",low toxicities; also recorded: no detectable toxicity
